{
  "sequences": {"note": "The chains behind the UniProt entries cited, without tags or fusion partners. Where a name states a change or a piece, a line headed by the entry shows the natural chain unless it says otherwise.", "UniProt P18054": "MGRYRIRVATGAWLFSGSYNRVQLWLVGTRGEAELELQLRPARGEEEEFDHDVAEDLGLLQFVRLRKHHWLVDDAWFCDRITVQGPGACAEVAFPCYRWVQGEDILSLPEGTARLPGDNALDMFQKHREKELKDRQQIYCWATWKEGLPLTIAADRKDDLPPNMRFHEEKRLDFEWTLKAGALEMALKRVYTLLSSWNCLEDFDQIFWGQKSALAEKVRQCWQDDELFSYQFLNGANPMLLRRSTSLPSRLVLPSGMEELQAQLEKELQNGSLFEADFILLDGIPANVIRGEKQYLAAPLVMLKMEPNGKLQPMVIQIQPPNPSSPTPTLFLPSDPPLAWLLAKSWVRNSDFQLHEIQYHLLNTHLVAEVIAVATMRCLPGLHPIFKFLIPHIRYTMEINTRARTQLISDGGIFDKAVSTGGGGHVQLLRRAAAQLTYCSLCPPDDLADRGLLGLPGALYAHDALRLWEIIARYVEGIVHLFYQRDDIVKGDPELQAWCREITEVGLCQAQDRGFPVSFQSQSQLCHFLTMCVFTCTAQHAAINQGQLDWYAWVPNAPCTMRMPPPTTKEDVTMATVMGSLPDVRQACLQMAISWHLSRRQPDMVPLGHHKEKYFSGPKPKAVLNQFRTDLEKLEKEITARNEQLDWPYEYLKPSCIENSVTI"},
  "source": "PubChem BioAssay AID1671190",
  "about": "(National Center for Advancing Translational Sciences (NCATS), 2021)",
  "note": "Screen size: about 580,000 compounds; about 6,100 (1.1%) were called active. The shares of active, inactive and inconclusive entries below differ from those in the screen. Calls come from the whole dose curve; as a rule, active = well fitted inhibition curve with a large enough effect; inconclusive = small, poorly fitted or top-dose-only effect, or another doubt; inactive = no such curve, though single readings can be large or run the other way. A potency beside an inconclusive call is a rough fit, not a confirmed value. Potency is the fitted concentration of half-maximal effect.",
  "data": [
    {"target": "Polyunsaturated fatty acid lipoxygenase ALOX12 (Homo sapiens) (UniProt P18054)", "assay": "Primary qHTS assay for inhibitors of human arachidonate 12S-lipoxygenase (ALOX12): Round 2", "conditions": "purified 12hLO, xylenol orange hydroperoxide absorbance; series mostly up to 108 µM", "method_in_brief": "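Hydroperoxide product was detected by ferrous iron/xylenol orange as the 573 to 405 nm absorbance ratio. Arachidonic acid at 40 uM (final) was turned over for 30 min at room temperature by 150 nM human 12hLO, pH 7.0 Hepes buffer, after 15 min compound preincubation.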", "values": [
      {"smiles": "Cc1ccc(N2CCN(C(=O)c3cn(C)c4ccc(S(=O)(=O)N5CCCC5)cc4c3=O)CC2C)cc1", "note": "(stereo not drawn)", "Potency": "inconclusive: 44.7 µM [inhibitor, partial curve, poor fit]"},
      {"smiles": "Cc1cc(Nc2cccc(Br)c2)n2c(nc3ccccc32)c1C#N", "Potency": "inconclusive: 20 µM [inhibitor, partial curve, poor fit]"},
      {"smiles": "CC(C)c1nc(CNC(=O)CC2C(=O)NCCN2Cc2ccc(F)cc2Cl)cs1", "note": "(stereo not drawn)", "Potency": "inconclusive: 35.5 µM [inhibitor, single point]"},
      {"smiles": "O=C(NC1CCC1)O[C@H]1CC[C@@]23CCCN2C(=O)CCC[C@H]3[C@H]1Cc1ccccc1", "Potency": "inactive"},
      {"smiles": "CCOc1cc(C(Nc2cc(C)ccn2)c2ccc3cccnc3c2O)ccc1OC", "note": "(stereo not drawn)", "Potency": "inconclusive: 44.7 µM [inhibitor, partial curve, poor fit]"},
      {"smiles": "CCCn1c(SCC(=O)Nc2nnc(C)s2)nnc1-c1ccoc1C", "Potency": "inconclusive: 44.7 µM [inhibitor, partial curve, poor fit]"},
      {"smiles": "CCOC(=O)c1c(CSc2ccccc2)oc2ccc(O)cc12", "Potency": "inconclusive: 50.1 µM [inhibitor, single point]"},
      {"smiles": "S=c1[nH]nc2c3c4c(sc3ncn12)CCCC4", "Potency": "active: 0.562 µM"},
      {"smiles": "CCn1nc(CC(=O)Nc2nnc(CC(=O)N3CCCCC3)s2)c2ccccc2c1=O", "Potency": "inconclusive: 141 µM [inhibitor, partial curve, poor fit]"},
      {"smiles": "COc1ccc(/C=C/c2nc(-c3ccccc3O)n[nH]2)cc1", "Potency": "inconclusive: 56.2 µM [inhibitor, single point]"},
      {"smiles": "CC(NC(=O)CSc1nnc(-c2ccncc2)n1-c1ccc(F)cc1)c1ccc2c(c1)OCO2", "note": "(stereo not drawn)", "Potency": "inconclusive: 50.1 µM [inhibitor, partial curve, poor fit]"},
      {"smiles": "COc1ccc(N2C(=O)/C(=C\\c3ccco3)N=C2SCC(=O)NC(C)C)cc1Cl", "Potency": "inconclusive: 50.1 µM [inhibitor, partial curve, poor fit]"},
      {"smiles": "OC(c1nc(Nc2ccc(Cl)cc2)n[nH]1)C1CC1", "note": "(stereo not drawn)", "Potency": "inactive"},
      {"smiles": "CS(=O)(=O)c1cc(C(=O)O)cc(NCc2ccccc2)c1Oc1ccccc1", "Potency": "inactive"},
      {"smiles": "O=C(c1ccccc1F)N1CCC2(CC1)CCN(Cc1cccs1)c1ccccc1O2", "Potency": "inactive"},
      {"smiles": "C=CCn1c(CNS(=O)(=O)c2ccc(Cl)cc2)n[nH]c1=S", "Potency": "inconclusive: 35.5 µM [inhibitor, partial curve, poor fit]"},
      {"smiles": "Cc1cccc(C)c1Nc1ncnc(N)c1[N+](=O)[O-]", "Potency": "inactive"},
      {"smiles": "Cc1nc2c(c(-c3ccc(Cl)cc3)n1)CCN(C(=O)c1cccc(Cl)c1)CC2", "Potency": "inconclusive: 56.2 µM [inhibitor, partial curve, poor fit]"},
      {"smiles": "CCCCSCCCNC(=O)CS(=O)Cc1nc(-c2ccc(C)cc2)oc1C", "note": "(stereo not drawn)", "Potency": "inconclusive: 44.7 µM [inhibitor, partial curve, poor fit]"},
      {"smiles": "O=c1[nH]cc(N=Cc2cc(Cl)cc(Cl)c2O)c(=O)[nH]1", "Potency": "inconclusive: 6.31 µM [inhibitor, full curve]"},
      {"smiles": "O=C(/C=C/c1ccc(-c2c(Cl)cccc2Cl)o1)c1ccccc1", "Potency": "inconclusive: 0.0891 µM [inhibitor, full curve, poor fit]"},
      {"smiles": "CC(C)Nc1ncnc2c1CN(C1CCCNC1)C(=O)CN2C", "note": "(stereo not drawn)", "Potency": "active: 3.98 µM"},
      {"smiles": "COc1ccc(C2Cn3nnc(-c4nc(-c5ccccc5OC)no4)c3CO2)cc1", "note": "(stereo not drawn)", "Potency": "inactive"},
      {"smiles": "CCCCOC(=O)Nc1nnc(/C=C/c2ccc(OC)cc2)s1", "Potency": "inactive"},
      {"smiles": "N#CCCc1c(O)ccc2ccccc12", "Potency": "inactive"},
      {"smiles": "Oc1c(Cl)cc(Cl)cc1C=Nc1cc(C(F)(F)F)ccc1N1CCc2ccccc2C1", "Potency": "inconclusive: 25.1 µM [inhibitor, partial curve, poor fit]"},
      {"smiles": "CC(/C=N\\NC(=O)Cn1c(C)nc2ccccc21)=C\\c1ccccc1", "Potency": "inactive"},
      {"smiles": "CCOC(=O)c1cc(C#N)c(Oc2ccc(F)cc2)nc1-c1ccccc1", "Potency": "inactive"},
      {"smiles": "CC1CCN(c2nc3ccc(C(=O)NCCCN4CCCCC4)cc3s2)CC1", "Potency": "inconclusive: 35.5 µM [inhibitor, partial curve, poor fit]"},
      {"smiles": "Cc1cc(C)c(CO)c(C)c1C=O", "Potency": "inconclusive: 31.6 µM [inhibitor, partial curve, poor fit]"},
      {"smiles": "Cn1nc(C2CCN(c3cncc(C(N)=O)n3)CC2)n(-c2ccccc2)c1=O", "Potency": "inconclusive: 28.2 µM [inhibitor, full curve]"},
      {"smiles": "COc1ccc(-n2nc(C(=O)N3CCCCC3)c3c4ccccc4n(C)c3c2=O)cc1Cl", "Potency": "inactive"},
      {"smiles": "S=c1[nH]nc(-c2cc(-c3ccco3)[nH]n2)n1-c1ccccc1", "Potency": "active: 22.4 µM"},
      {"smiles": "CCc1ccc(C(=O)N2CCC(N3C(=O)CCC3C(=O)NC(C)C)CC2)cc1", "note": "(stereo not drawn)", "Potency": "inactive"},
      {"smiles": "Cc1cc(C(=O)OCC(=O)NC(=O)NC(C)C)c2ccccc2n1", "Potency": "inactive"},
      {"smiles": "O=C(COC(=O)CNC(=O)C1CCCCC1)Nc1ccc2ccccc2c1", "Potency": "inconclusive: 10 µM [inhibitor, partial curve, poor fit]"},
      {"smiles": "Cc1noc(C)c1NC(=O)Nc1ccc2c(c1)CC(=O)N([C@@H](C)CO)C[C@@H](C)[C@@H](CN(C)C(=O)Nc1cccc3ccccc13)O2", "Potency": "inactive"},
      {"smiles": "C/C(=N\\NC(=O)c1ccco1)c1ccc(NC(=O)c2cccs2)cc1", "Potency": "inactive"},
      {"smiles": "O=C(NCCNc1ncccn1)NCCC(c1ccccc1)c1ccccc1", "Potency": "inconclusive: 39.8 µM [inhibitor, partial curve, poor fit]"},
      {"smiles": "COc1ccc(Br)cc1/C=N/NC(=O)c1ccc(OC)c(OC)c1", "Potency": "inconclusive: 112 µM [inhibitor, single point]"},
      {"smiles": "Cc1cc(C)c(NC(=O)CSC2=C(C#N)C(c3ccc(C)o3)C3=C(CCCC3=O)N2)c(C)c1", "note": "(stereo not drawn)", "Potency": "inconclusive: 20 µM [inhibitor, full curve, poor fit]"},
      {"smiles": "COc1ccc(C(=O)Oc2ccc(C#N)cc2)cc1OC", "Potency": "inactive"},
      {"smiles": "COc1ccc(C)cc1S(=O)(=O)N1CCN(S(=O)(=O)c2cc(C(=O)O)ccc2C)CC1", "Potency": "active: 15.8 µM"},
      {"smiles": "COc1ccc(CNC(=O)C2CC(=O)N(c3ccc(OCC(=O)N4CCCCC4)cc3)C2)cc1", "note": "(stereo not drawn)", "Potency": "inconclusive: 44.7 µM [inhibitor, partial curve, poor fit]"},
      {"smiles": "Cc1ccc(CCN2CCCC23Cc2ccccc2CNC3=O)cc1", "note": "(stereo not drawn)", "Potency": "inconclusive: 112 µM [inhibitor, partial curve, poor fit]"},
      {"smiles": "Clc1ccc(-c2ccc(-c3nn4c(-c5ccco5)nnc4s3)o2)cc1", "Potency": "inconclusive: 39.8 µM [inhibitor, partial curve]"},
      {"smiles": "Cc1ccc2nc(-c3ccccc3NC(=O)CCC(=O)O)c(=O)[nH]c2c1", "Potency": "inconclusive: 3.16 µM [inhibitor, full curve, poor fit]"},
      {"smiles": "Cc1cc(C)cc(-c2nnc(SCc3ccc(C(=O)O)cc3)o2)c1", "Potency": "inconclusive: 79.4 µM [inhibitor, single point]"},
      {"smiles": "COC(=O)c1sc2ncccc2c1OCc1ccc(Cl)cc1Cl", "Potency": "inconclusive: 56.2 µM [inhibitor, partial curve, poor fit]"},
      {"smiles": "Cc1ccc(NC(=O)c2cc(-c3cccnc3)nc3ccccc23)cc1", "Potency": "inactive"},
      {"smiles": "COC(=O)C1=C(C(=O)OC)C2C(C)=CC(C)=CN2C(C(=O)OC)=C1C(=O)OC", "note": "(stereo not drawn)", "Potency": "inconclusive: 2.24 µM [inhibitor, full curve]"},
      {"smiles": "CCCn1c(-c2ccc(OC(F)F)cc2)nc2c1c(=O)[nH]c(=O)n2Cc1ccccc1", "Potency": "inconclusive: 50.1 µM [inhibitor, partial curve, poor fit]"},
      {"smiles": "Clc1ccccc1-c1nnc2sc(CCc3ccccc3)nn12", "Potency": "inconclusive: 7.94 µM [inhibitor, full curve, poor fit]"},
      {"smiles": "N#CC1(CCCN2CCCCC2)c2ccccc2CCc2ccccc21", "Potency": "inconclusive: 126 µM [inhibitor, single point]"},
      {"smiles": "O=C1CC(CC(=O)N2CC3CCCC2C3)(c2cccc(F)c2)C(=O)N1Cc1cccnc1", "note": "(stereo not drawn)", "Potency": "inactive"},
      {"smiles": "COC(=O)/C=C1\\SC(=Nc2ccccc2)NC1=O", "Potency": "inactive"},
      {"smiles": "CCOC(=O)c1cnc(Nc2ccccc2OCC)c2ccccc12", "Potency": "inconclusive: 31.6 µM [inhibitor, single point]"},
      {"smiles": "CCOC(=O)Cn1nnnc1C(C(C)C)N(Cc1cccs1)Cc1cc2cc(C)ccc2[nH]c1=O", "note": "(stereo not drawn)", "Potency": "inactive"},
      {"smiles": "Cc1ccc(C(=O)N2C(C(=O)N3CCOCC3)COC23CCN(C(=O)c2ccc(F)cc2)CC3)cc1", "note": "(stereo not drawn)", "Potency": "inactive"},
      {"smiles": "O=C(CSc1nnc(-c2ccccc2)c(-c2ccccc2)n1)NC(=O)NCc1ccccc1", "Potency": "inactive"},
      {"smiles": "COc1cccc(C(=O)Nc2ccc(N(C)C)cc2)c1OC", "Potency": "inconclusive: 39.8 µM [inhibitor, single point]"},
      {"smiles": "CC(C)C(=O)Nc1cccc(NC(=S)NC(=O)c2ccc3c(c2)OCO3)c1", "Potency": "active: 3.55 µM"},
      {"smiles": "Cc1[nH]c(=S)sc1Cc1ccc(F)cc1", "Potency": "inconclusive: 50.1 µM [inhibitor, partial curve, poor fit]"},
      {"smiles": "O=C(c1ccccc1)c1ccc(OCCCN2CCCC2)cc1", "Potency": "inconclusive: 0.501 µM [inhibitor, full curve, poor fit]"},
      {"smiles": "S=C(NC1CCCC1)N1CCN(c2cccc(Cl)c2)CC1", "Potency": "inconclusive: 112 µM [inhibitor, partial curve, poor fit]"},
      {"smiles": "CCOC(=O)N1CCc2c(sc(NCc3cccs3)c2C(=O)Nc2cc(Cl)ccc2OC)C1", "Potency": "inconclusive: 25.1 µM [inhibitor, partial curve, poor fit]"},
      {"smiles": "OCCCNc1nc(-c2ccc(Br)cc2)nnc1-c1ccc(Cl)cc1", "Potency": "inactive"},
      {"smiles": "Cc1cccc(-n2nc3c(c2NC(=O)c2ccco2)CSC3)c1C", "Potency": "inconclusive: 44.7 µM [inhibitor, partial curve, poor fit]"}
    ]}
  ]
}
